The results in this text go back to publication PMC8895955.

Amino acid sequences for entries named in this document (tags omitted). A change or cut given only in a name is not applied to a line headed by its entry.
UniProt Q04207: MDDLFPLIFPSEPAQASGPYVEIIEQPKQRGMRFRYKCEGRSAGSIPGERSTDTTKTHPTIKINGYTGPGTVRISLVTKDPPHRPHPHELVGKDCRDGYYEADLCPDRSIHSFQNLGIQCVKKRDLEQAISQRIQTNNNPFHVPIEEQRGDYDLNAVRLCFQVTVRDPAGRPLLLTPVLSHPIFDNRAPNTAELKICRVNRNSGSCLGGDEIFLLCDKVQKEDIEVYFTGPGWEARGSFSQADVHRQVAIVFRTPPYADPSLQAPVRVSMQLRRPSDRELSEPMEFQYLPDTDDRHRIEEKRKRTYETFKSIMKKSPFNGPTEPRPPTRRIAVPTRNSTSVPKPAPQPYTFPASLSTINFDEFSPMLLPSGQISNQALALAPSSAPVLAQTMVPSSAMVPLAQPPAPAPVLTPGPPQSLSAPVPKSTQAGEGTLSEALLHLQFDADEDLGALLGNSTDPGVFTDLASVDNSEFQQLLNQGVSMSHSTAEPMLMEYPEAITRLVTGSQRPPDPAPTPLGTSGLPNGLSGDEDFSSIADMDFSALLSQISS

These are yes or no findings as the source states them, for the method shown. Binding seen in cells or lysates may run through a third protein. Some binding calls cover weakened binding; strength is not graded here.

In the experiment the target is p65 (construct of Figure S10C) (mouse) (UniProt Q04207). In words: co-IP; exogenous IP; HEK293T transfected with plasmids (PEI); IP buffer 50 mM Tris-HCl pH 7.4, 150 mM NaCl, 1% Triton X-100; anti-HA, anti-Flag or anti-Myc overnight, protein A/G agarose at 4°C; empty vectors or anti-IgG as control.

B1: Kat8 (enzyme, UniProt Q9D1P2 1-458)
chain: MAAQGATAAVAATTSGTVGEGEPGPGENAAVEGPARSPGRVSPPTPARGEPEVTVEIGETYLCRRPDSTWHSAEVIQSRVNDQEGREEFYVHYVGFNRRLDEWVDKNRLALTKTVKDAVQKNSEKYLSELAEQPERKITRNQKRKHDEINHVQKTYAEMDPTTAALEKEHEAITKVKYVDKIHIGNYEIDAWYFSPFPEDYGKQPKLWLCEYCLKYMKFEKSYRFHLGQCQWRQPPGKEIYRKSNISVYEVDGKDHKIYCQNLCLLAKLFLDHKTLYFDVEPFVFYILTEVDRQGAHIVGYFSKEKESPDGNNVACILTLPPYQRRGYGKFLIAFSYELSKLESTVGSPEKPLSDLGKLSYRSYWSWVLLEILRDFRGTLSIKDLSQMTSITQNDIISTLQSLNMVKYWKGQHVICVTPKLVEEHLKSAQYKKPPITVDSVCLKWAPPKHKQVKLSKK
As for B1, the binding result is listed as “binds”.
